Results on 6 substances are retold here after article PMC12781765.

The chains behind the UniProt entries cited, without tags or fusion partners. Where a name states a change or a piece, a line headed by the entry shows the natural chain unless it says otherwise. A line that says so, or that is headed by a name, gives the form on record, which may keep a tag or linker.
UniProt Q9NPQ8: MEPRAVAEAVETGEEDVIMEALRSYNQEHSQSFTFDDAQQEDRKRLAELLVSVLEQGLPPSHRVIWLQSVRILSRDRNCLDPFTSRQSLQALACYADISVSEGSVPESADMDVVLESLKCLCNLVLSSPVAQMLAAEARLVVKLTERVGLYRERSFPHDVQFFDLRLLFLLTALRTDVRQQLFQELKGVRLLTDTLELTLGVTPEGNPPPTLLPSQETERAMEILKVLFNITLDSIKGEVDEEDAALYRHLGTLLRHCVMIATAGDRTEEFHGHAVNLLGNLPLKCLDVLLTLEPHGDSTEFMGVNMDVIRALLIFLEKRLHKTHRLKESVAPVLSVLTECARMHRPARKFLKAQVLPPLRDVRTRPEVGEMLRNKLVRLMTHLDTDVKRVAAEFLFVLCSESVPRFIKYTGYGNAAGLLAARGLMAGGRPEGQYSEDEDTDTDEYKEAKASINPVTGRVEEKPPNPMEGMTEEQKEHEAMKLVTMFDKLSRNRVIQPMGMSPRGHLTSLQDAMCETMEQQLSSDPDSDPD
UniProt P16520: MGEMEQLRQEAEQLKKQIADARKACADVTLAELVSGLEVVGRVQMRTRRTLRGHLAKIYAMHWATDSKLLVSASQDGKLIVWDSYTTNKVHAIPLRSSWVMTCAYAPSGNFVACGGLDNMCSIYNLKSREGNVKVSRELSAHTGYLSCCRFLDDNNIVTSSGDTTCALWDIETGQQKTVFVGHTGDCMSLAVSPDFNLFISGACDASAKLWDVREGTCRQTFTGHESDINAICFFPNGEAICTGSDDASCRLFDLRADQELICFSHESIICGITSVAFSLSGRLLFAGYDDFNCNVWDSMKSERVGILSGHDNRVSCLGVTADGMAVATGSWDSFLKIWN
UniProt P09471: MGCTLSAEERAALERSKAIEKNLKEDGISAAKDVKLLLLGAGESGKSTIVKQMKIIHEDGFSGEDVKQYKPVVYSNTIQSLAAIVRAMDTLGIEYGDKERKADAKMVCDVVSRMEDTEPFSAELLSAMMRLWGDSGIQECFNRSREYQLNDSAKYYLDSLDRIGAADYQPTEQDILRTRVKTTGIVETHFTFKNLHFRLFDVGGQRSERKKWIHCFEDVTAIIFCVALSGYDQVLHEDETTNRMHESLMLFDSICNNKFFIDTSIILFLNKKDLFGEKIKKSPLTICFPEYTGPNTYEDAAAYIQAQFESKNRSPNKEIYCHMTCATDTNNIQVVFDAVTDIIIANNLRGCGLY
Gαo L39_G40insV (non-tagged) (P09471-1, form named): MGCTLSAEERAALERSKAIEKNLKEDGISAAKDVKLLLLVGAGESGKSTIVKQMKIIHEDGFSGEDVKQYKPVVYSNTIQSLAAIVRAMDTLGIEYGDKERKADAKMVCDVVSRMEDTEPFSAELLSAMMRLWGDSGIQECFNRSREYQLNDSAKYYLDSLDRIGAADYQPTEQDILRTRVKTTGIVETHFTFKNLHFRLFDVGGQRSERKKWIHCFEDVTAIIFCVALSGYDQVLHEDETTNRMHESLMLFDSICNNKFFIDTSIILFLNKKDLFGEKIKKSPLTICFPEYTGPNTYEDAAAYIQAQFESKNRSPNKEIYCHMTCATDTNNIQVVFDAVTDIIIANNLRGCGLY

No constants are given. Whether binding was seen depends on the method and setting. Binding seen in cells or lysates may run through a third protein. Some entries that bind do so weakly or less than the wild type. For some assays here: Where a sequence is shown, tags or fusion partners need not be part of it.

One assay concerns the target GFP-Ric8A (UniProt Q9NPQ8). The assay can be described thus: co-IP; HEK293T co-transfected with the GFP-tagged construct and non-tagged Gαo variants; IP of the GFP fusion with a recombinant GST-tagged nanobody against GFP; Western blot with antibodies against Gαo and GFP; blots quantified with ImageJ.
A further assay concerns the target T1, GFP-Ric8B (UniProt Q9NVN3).
T1 sequence: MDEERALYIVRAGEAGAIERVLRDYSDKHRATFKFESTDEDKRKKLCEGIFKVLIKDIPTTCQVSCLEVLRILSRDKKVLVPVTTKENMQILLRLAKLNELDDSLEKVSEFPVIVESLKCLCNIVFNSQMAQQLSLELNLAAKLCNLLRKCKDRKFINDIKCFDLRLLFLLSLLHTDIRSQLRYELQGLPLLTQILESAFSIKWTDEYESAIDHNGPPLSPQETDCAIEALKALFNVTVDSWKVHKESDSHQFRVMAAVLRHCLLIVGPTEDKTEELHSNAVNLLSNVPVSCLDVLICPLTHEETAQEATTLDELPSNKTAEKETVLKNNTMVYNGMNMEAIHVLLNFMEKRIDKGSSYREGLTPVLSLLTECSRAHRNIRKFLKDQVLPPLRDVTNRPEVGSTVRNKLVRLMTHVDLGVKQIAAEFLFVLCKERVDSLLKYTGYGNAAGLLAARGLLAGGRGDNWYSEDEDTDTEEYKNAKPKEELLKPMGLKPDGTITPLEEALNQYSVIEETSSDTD
Described as above.

The next assay concerns the target Venus-tagged Gβ3γ9 (UniProt P16520). Description: FRET or BRET; Gβ3γ9 displacement assay, steady state; HEK293T co-transfected with the Go1-CASE plasmid (Gαo^G92-NLuc, Venus-Gβ3γ9) and non-tagged Gαo or empty pcDNA3.1 (1:3 ratio); furimazine 10 µM; reduction of the BRET signal is read. Background: BRET reads energy transfer from a luciferase to a nearby fluorophore.

Another assay concerns the target T2, GFP-RGS19 (UniProt P49795).
T2 sequence: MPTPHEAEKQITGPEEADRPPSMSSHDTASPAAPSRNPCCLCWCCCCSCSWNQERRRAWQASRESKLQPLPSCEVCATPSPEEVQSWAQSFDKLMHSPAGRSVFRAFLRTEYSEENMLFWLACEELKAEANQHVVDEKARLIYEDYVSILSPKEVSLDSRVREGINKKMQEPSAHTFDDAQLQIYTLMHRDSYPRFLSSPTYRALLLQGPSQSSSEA
Description: co-IP; HEK293T co-transfected with the GFP-tagged construct and non-tagged Gαo variants; IP of the GFP fusion with a recombinant GST-tagged nanobody against GFP; Western blot with antibodies against Gαo and GFP; blots quantified with ImageJ. In general terms: Immunoblotting shows a protein as a band on a membrane.

As for “Gαo G203R (DEE17-linked mutant used as control) (from UniProt P09471 1-354)”, the binding entry with GFP-Ric8A and in the assay with GFP-Ric8B was “binds” in each case.

Take “Gαo L39_G40insV (non-tagged) (from UniProt P09471-1 1-354)”: the binding entry in the assay with GFP-Ric8A and in the assay with GFP-Ric8B was “binds” each time. For “Gαo T327K (non-tagged) (from UniProt P09471-1 1-354)”, the binding entry in the assay with GFP-Ric8A and in the assay with GFP-Ric8B was “binds” in each case. On to “Gαo T327R (non-tagged) (from UniProt P09471-1 1-354)”, for which the binding entry with GFP-Ric8A and in the assay with GFP-Ric8B was “binds” throughout. On to “Gαo wild-type (non-tagged) (from UniProt P09471-1 1-354)”, for which the binding entry in the assay with Venus-tagged Gβ3γ9 and in the assay with GFP-RGS19 was “binds” each time. On to “Gαo^G92-NLuc (wild-type Gαo internally tagged with nano-luciferase) (from UniProt P09471 1-354)”, for which the binding entry with Venus-tagged Gβ3γ9 is listed as “binds”.
